The target in the assay is T1, Stimulator of interferon genes (STING) (mouse (endogenous in BMDC)) (UniProt Q3TBT3).
T1 sequence: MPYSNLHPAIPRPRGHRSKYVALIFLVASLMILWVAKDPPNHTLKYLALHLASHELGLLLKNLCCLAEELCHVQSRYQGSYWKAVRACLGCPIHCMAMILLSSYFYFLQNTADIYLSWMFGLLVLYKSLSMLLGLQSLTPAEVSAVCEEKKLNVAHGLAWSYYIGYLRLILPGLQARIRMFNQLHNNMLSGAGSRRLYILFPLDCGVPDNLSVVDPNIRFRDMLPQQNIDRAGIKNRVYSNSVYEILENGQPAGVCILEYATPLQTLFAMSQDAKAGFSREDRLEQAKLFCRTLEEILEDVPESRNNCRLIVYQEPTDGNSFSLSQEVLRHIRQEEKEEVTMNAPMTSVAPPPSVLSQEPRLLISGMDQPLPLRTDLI
In words: affinity purification with mass spectrometry.

No constants are given. Whether binding was seen depends on the method and setting. Binding seen in cells or lysates may run through a third protein. Here binding means that the protein was enriched with, or labelled near, the bait; the list need not be complete.

For “LYN, a member of Src family kinases (from UniProt P25911-1 1-512)”, the binding result is reported as “binds”.

Values taken from paper doi:10.1101/810192.
